Measured data: PubChem BioAssay AID686938 (Drosophila RNAi Screening Center, 2013)
Aim: 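Looking for CRAC channel components and the factors controlling them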 (primary screen). System: Drosophila S2R+ cells. Reagents: long dsRNA against Drosophila genes, about 0.25 µg dsRNA per well, roughly 10,000 cells. Duration: 5 days of knock-down before the calcium assay. Challenge: thapsigargin (SERCA pump blocker) to empty calcium stores; entry signal taken 4 min after adding it. Measured: 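Per-well fluo-4 fluorescence in two replicates, unnormalised, measured in resting cells and 4 min after store depletion by the SERCA blocker thapsigargin; ratio of the two present in few wells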. Direction: calcium entry signal: higher = stronger calcium signal after store depletion; entry to resting ratio: higher = more calcium entry relative to resting level; resting calcium signal: higher = higher resting calcium signal. Hit rule: 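Called when the plate z-score of the entry-to-rest ratio, mean of duplicates, falls below −3; wells with low overall dye signal (Fmax z below −2) or more than five off-targets excluded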. Meaning of the calls: active = strongly reduced calcium entry; inactive = no strong reduction.
The deposit covers about 23,000 reagents; below is an unselected part of those with a known target gene and a result. Of all reagents, 75 (0.33%) got an active call. 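Raw plate signals without normalisation; calls rest on plate z-scores that were not deposited; ratio present for only 364 wells.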 A plus sign joins genes that one reagent is predicted to hit. No sequences are given here. The record does not give: the dose of the treatment.

no.	gene knocked down	dsRNA	calcium entry signal, replicate 1 (fluorescence units)	calcium entry signal, replicate 2 (fluorescence units)	entry to resting ratio	resting calcium signal, replicate 1 (fluorescence units)	resting calcium signal, replicate 2 (fluorescence units)	outcome
1	Rsph3	DRSC09696	5.30e7	3.41e7		3.16e7	1.45e7	inactive
2	Rsph3	DRSC10211	3.84e7	5.80e7		1.92e7	2.50e7	inactive
3	eIF2Bbeta	DRSC18465	3.96e7	4.33e7	2.3	1.74e7	1.60e7	inactive
4	CG13625	DRSC14627	3.18e7	3.40e7		1.92e7	1.84e7	inactive
5	Mipp2	DRSC18682	3.41e7	3.09e7		1.51e7	1.43e7	inactive
6	Obp99d	DRSC15046	4.10e7	5.11e7		2.08e7	2.17e7	inactive
7	CG34235 + CG30058 + CG34312	DRSC22142	2.60e7	3.30e7		1.35e7	1.55e7	inactive
8	CG2247	DRSC19844	2.91e7	3.83e7		1.43e7	1.84e7	inactive
9	CG8757	DRSC11039	3.21e7	4.48e7		1.60e7	1.91e7	inactive
10	Ir52a	DRSC06262	3.68e7	4.16e7		1.68e7	1.84e7	inactive
11	CG2915	DRSC06842	3.85e7	3.25e7		1.61e7	1.55e7	inactive
12	CG45263	DRSC12682	2.65e7	4.46e7		1.34e7	2.43e7	inactive
13	CG45263	DRSC14357	5.07e7	3.41e7		2.62e7	1.85e7	inactive
14	CG45263	DRSC14360	4.12e7	2.62e7		1.99e7	1.44e7	inactive
15	CG45263	DRSC14361	3.23e7	2.67e7		1.54e7	1.43e7	inactive
16	CG45263	DRSC14363	3.62e7	2.98e7		1.58e7	1.38e7	inactive
17	CG6044	DRSC04522	2.28e7	2.90e7		1.21e7	1.34e7	inactive
18	CG13365	DRSC17899	3.13e7	4.73e7	1.9	1.65e7	1.95e7	inactive
19	Or63a	DRSC08681	4.39e7	3.75e7		2.17e7	1.72e7	inactive
20	eIF4E6	DRSC14853	4.40e7	6.46e7		2.11e7	2.54e7	inactive
21	onecut	DRSC17175	2.93e7	5.80e7	2	1.46e7	2.07e7	inactive
22	CCT3	DRSC16602	3.12e7	2.21e7		1.64e7	1.16e7	inactive
23	CG30054	DRSC05354	4.93e7	4.03e7		2.03e7	1.73e7	inactive

Next part, starting with the last 2 of the part before.
no.	gene knocked down	dsRNA	calcium entry signal, replicate 1 (fluorescence units)	calcium entry signal, replicate 2 (fluorescence units)	entry to resting ratio	resting calcium signal, replicate 1 (fluorescence units)	resting calcium signal, replicate 2 (fluorescence units)	outcome
22	CCT3	DRSC16602	3.12e7	2.21e7		1.64e7	1.16e7	inactive
23	CG30054	DRSC05354	4.93e7	4.03e7		2.03e7	1.73e7	inactive
24	CG33655	DRSC03858	3.44e7	6.09e7		1.59e7	2.57e7	inactive
25	Agpat1	DRSC19879	3.22e7	4.58e7		1.70e7	2.18e7	inactive
26	Agpat1	DRSC19880	2.69e7	4.38e7		1.35e7	1.99e7	inactive
27	CG43058	DRSC05434	5.41e7	4.00e7		2.22e7	1.69e7	inactive
28	CG17841	DRSC17737	5.05e7	4.83e7		2.06e7	2.11e7	inactive
29	Cpr72Ea	DRSC10451	4.14e7	4.92e7		1.89e7	3.36e7	inactive
30	upd1	DRSC20358	4.26e7	3.58e7		2.17e7	1.63e7	inactive
31	Amy-d	DRSC05919	4.74e7	4.32e7		2.18e7	2.03e7	inactive
32	CG17199	DRSC15192	3.54e7	3.90e7		4.61e7	1.78e7	inactive
33	Zfrp8	DRSC04352	3.20e7	3.28e7		1.65e7	1.70e7	inactive
34	CG5618	DRSC11780	4.21e7	4.71e7		1.81e7	2.74e7	inactive
35	CG14797 + CG32809	DRSC18562	3.98e7	4.34e7	2.2	1.85e7	1.77e7	inactive
36	Obp19c	DRSC20528	5.08e7	4.13e7		2.48e7	1.67e7	inactive
37	pths	DRSC03171	1.97e7	1.88e7		1.27e7	1.21e7	inactive
38	CG18428	DRSC15326	4.96e7	4.64e7		2.52e7	1.88e7	inactive
39	PGRP-SC1b	DRSC07215	4.60e7	4.10e7		1.92e7	1.91e7	inactive
40	Ir48c	DRSC06154	3.21e7	3.94e7		2.02e7	2.06e7	inactive
41	eIF3j	DRSC06107	3.39e7	2.47e7		1.46e7	1.23e7	inactive
42	CG32073	DRSC09087	3.61e7	4.87e7		1.85e7	2.14e7	inactive
43	CG32073	DRSC09894	3.28e7	4.87e7		1.64e7	2.04e7	inactive
44	CG34290	DRSC13660	3.91e7	4.08e7		1.80e7	2.14e7	inactive
45	Ip259	DRSC03352	2.56e7			1.52e7		inactive
46	ETH + asRNA:CR43257	DRSC04612	3.98e7	4.62e7		2.12e7	2.14e7	inactive
47	CG6761	DRSC10705	5.29e7	3.93e7		3.38e7	1.63e7	inactive
48	CG31949	DRSC00110	2.79e7	2.84e7		1.49e7	1.32e7	inactive
49	Spt6	DRSC18836	1.10e7	1.16e7		7.16e6	7.70e6	inactive
50	Ak2	DRSC04043	2.42e7	3.12e7		1.46e7	1.64e7	inactive
51	Arr2	DRSC09670	2.92e7	3.73e7		1.41e7	1.41e7	inactive
52	CG15635	DRSC00470	2.58e7	3.59e7		1.33e7	1.74e7	inactive
53	CG15635	DRSC22873	4.40e7	3.58e7		2.09e7	1.45e7	inactive
54	pnr	DRSC17027	3.20e7	2.44e7		1.64e7	1.27e7	inactive
55	ab	DRSC01162	3.27e7	3.46e7		1.73e7	1.70e7	inactive
56	ab	DRSC03478	3.74e7	2.80e7		2.13e7	1.61e7	inactive
57	ab	DRSC23151	3.01e7	3.25e7		1.62e7	1.51e7	inactive
58	ab	DRSC23179	3.33e7	3.38e7		1.77e7	1.49e7	inactive
